Test results from the RNAGym collection of RNA variant scans (doi:10.1126/science.aae0568).
Variants at the floor of the assay are shown more often than the library holds them.

B1: tRNA (parent)
chain: GUUCCGUUGGCGUAAUGGUAACGCGUCUCCCUCCUAAGGAGAAGACUGCGGGUUCGAGUCCCGUACGGAACG

Variants of: B1
Assay: yeast fitness relative to wild type (ratio to wild type); higher = fitter; tRNA-Arg(CCU), competitive growth, 37 C, YPD
How it was run: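 Amplicons of the tRNA-Arg(CCU) gene were sequenced, 100-nucleotide paired-end, from the start population and from each end population of a pooled yeast competition. The competition, in six parallel replicates, lasted 24 hours in YPD at 37°C. Fitness relative to wild type was calculated from changes in genotype frequencies. Genotypes had to have ≥ 100 starting reads, and estimates < 0.5 were set to 0.5.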

Row | Variant | yeast fitness
1 | C30U C34U G52A C60U | ≤ 0.5
2 | C34U C46G G63A A65C | ≤ 0.5
3 | G6C G17C C31G A36G G48C | ≤ 0.5
4 | C5A A21U C22G A57G C60U | ≤ 0.5
5 | A36C C46G G51C | ≤ 0.5
6 | G23C G38A G48A C49G | ≤ 0.5
7 | G6A C11G C33G | ≤ 0.5
8 | U3A C22A C33G A37C G50A | ≤ 0.5
9 | C22G G52A | 0.772
10 | C24G C27G C61U A65G G68C | ≤ 0.5
11 | G38U A69C | 0.892
12 | G9A C22U C30A C49A U54C C55A C62U C66U | ≤ 0.5
13 | C5A C11G C24A | ≤ 0.5
14 | G6A C11U C31G G51A G67A | ≤ 0.5
15 | C24A C29G A45C A57U A65C | ≤ 0.5
16 | C24G G25C C30G U32C | ≤ 0.5
17 | A37G G39A C62U G63A | ≤ 0.5
18 | C4U U7C G10A A14U C27G A36G G63A | ≤ 0.5
19 | G17A G18A | 0.65
20 | C31G G38A G63C G67C | ≤ 0.5
21 | A45U U54C C55G | ≤ 0.5

Row | Variant | yeast fitness
22 | C33A U35C C46U C49U G52C C61U C66U A69U | 0.528
23 | C5G C30U C55U | ≤ 0.5
24 | U7G C11G C34U A37U C46A G51A | ≤ 0.5
25 | U8C C30U U59C A69C | ≤ 0.5
26 | G6A G50A C60A G68U | ≤ 0.5
27 | C5U G17C C30A U35C | ≤ 0.5
28 | G18C C27U C55G G68C | ≤ 0.5
29 | A36G A45C C61U | 0.76
30 | C11G G51C A65G A69U | ≤ 0.5
31 | C11G G25A C29U C34U | ≤ 0.5
32 | U7A U59C | 0.662
33 | A14G A57U A69G A70C | ≤ 0.5
34 | C5U U19C G67C A70U | ≤ 0.5
35 | C4A C11G U13G G25A G58A | ≤ 0.5
36 | G9C A14C C29A | ≤ 0.5
37 | C4A U13A G18A A42G G52A C55G | ≤ 0.5
38 | G39A G48C A70U | ≤ 0.5
39 | A15C C27U G52A C61A | ≤ 0.5
40 | U3C C27G C33A U47G A70G | ≤ 0.5
41 | U3C C24G C31A A43U A65C | ≤ 0.5
42 | G6A G9C C24U C30G C31A A43G A65C | ≤ 0.5

Row | Variant | yeast fitness
43 | C29U G39C G48C | ≤ 0.5
44 | G18A A42G | 0.692
45 | U7A U13C A42U C46A | ≤ 0.5
46 | U3G G18A C66A A70U | ≤ 0.5
47 | A21U G38C A45G U59A | ≤ 0.5
48 | U26G C46G | 0.807
49 | U2G U13C A21G U35A C55U A70G | ≤ 0.5
50 | A14G G17A A37U C60A | ≤ 0.5
51 | C4A U7A U13A C30A | ≤ 0.5
52 | C31U G48A G68U A70C | ≤ 0.5
53 | G12C U32C A65G | 0.569
54 | G6C C27U U28C A45G U64A | ≤ 0.5
55 | G10A G23C C29U A36C | 0.532
56 | U28C C60A | 0.632
57 | U2G U16G C27A C29U A36C G51A | ≤ 0.5
58 | C5U U26G G58A | 0.924
59 | G6C G44C G68C | ≤ 0.5
60 | A20U C29A A36C A40C A45C | ≤ 0.5
61 | C22A C29U A42C | ≤ 0.5
62 | G9A G12C A65G G67C A69G | ≤ 0.5
63 | A43G A57G | 0.924

Row | Variant | yeast fitness
64 | A15U A65G | 0.649
65 | C5G U64G C66U | 0.593
66 | G6A G10C C29G | ≤ 0.5
67 | C5A G17A A21C C33G A43U C55U | ≤ 0.5
68 | C5G G25C C62G C66G G67U | ≤ 0.5
69 | C11A U19A C29A U32A U54C C55G C60G A70U | ≤ 0.5
70 | C5U C22U C34U G41A A45G | ≤ 0.5
71 | C30A G38A A42C G51C C60U G67A | ≤ 0.5
72 | C4G G17A C22A G38A | 0.638
73 | U16A C34A U64C | 0.513
74 | G10C C11G G56C G68A | ≤ 0.5
75 | U2C C11A C22G U54C G56A | ≤ 0.5
76 | G25C C34A U35C | ≤ 0.5
77 | C4A C27G C33G G41A | ≤ 0.5
78 | G23C C27G U53G | ≤ 0.5
79 | G18A G44C A65C | ≤ 0.5
80 | A20C C24G G39A | ≤ 0.5
81 | G12C C33G U35A A37C | ≤ 0.5
82 | C11G C22A A69U | ≤ 0.5
83 | A14G A21C C24A G39A G56C A69U | ≤ 0.5
